# In US20170105999A1, “METHOD FOR TREATING DRUG RESISTANT CANCER” (NATIONAL YANG MING UNIVERSITY, priority 2014, published 2017):
# Legend:
# CL152 = test: Cytotoxicity, sulforhodamine B (SRB) assay; type: cell-based; settings: read-out: IC50 for prochlorperazine; CL152, squamous cell carcinoma, EGFR WT; 48 hours
# Method: (§1) Cells were plated in 96-well plates at a density of 2000 cells per well in triplicate. The cells were treated on the third day (to ensure proper plating efficiency and vitality) to indicated agents for 48 hrs. […] Cytotoxicity was assessed using the sulforhodamine B (SRB) assay (23). Briefly, the medium was discarded, and the adherent cells were fixed by 100 μl of cold 10% trichioroacetic acid (w/v) in each well for 1 h at 4° C. After fixation, cells were stained with 100 μl/well of 0.4% (w/v, in 1% acetic acid) SRB solution for 30 min at room temperature, and then washed 5 times with 1% acetic acid. After air-drying, 100 μl of 10 mM Tris base was added to each well and the absorbance was read at 530 nm. Cytotoxicity is expressed as the percent of cells in drug treated wells relative to number of cells in the solvent only control (set to 100%). Each experiment was performed independently at least 2 times in triplicate and cytotoxicity is given as means ±SD.
# (§2) A549, A549-ON, CL97, CL141, HCC827, and H441 were lung adenocarcinoma cell lines. CL152, H2170, and H226 were squamous cell carcinoma cell lines. Cell viability was determined by SRB assay. […] To determine whether side population (SP) cells, which represent a cell population with CSC characteristics, exist in NSCLC cell lines, we stained the cells with the fluorescent dye, Hoechst 33342, and analyzed the cells with flow cytometry.
# CL141 = test: Cytotoxicity, sulforhodamine B (SRB) assay; type: cell-based; settings: read-out: IC50 for prochlorperazine; CL141, adenocarcinoma, EGFR WT; 48 hours
# Method: as §1, §2
# HT29 = test: cells; settings: Homo sapiens, HT-29, read-out: IC50 for prochlorperazine
# Method: as §1
# SK-Hep 1 = test: cells; settings: Homo sapiens, SK-HEP1, read-out: IC50 for prochlorperazine
# Method: as §1
# H226 = test: cells; settings: Homo sapiens, NCI-H226, 48 h, read-out: IC50 for prochlorperazine
# Method: as §1, §2
# H1299 = test: cells; settings: Homo sapiens, NCI-H1299, 48 h, read-out: IC50 for prochlorperazine
# Method: as §1, §2
# H441 = test: cells; settings: Homo sapiens, NCI-H441, 48 h, read-out: IC50 for prochlorperazine
# Method: as §1, §2
# [1] = test system: A549-ON (overexpression Oct4 and Nanog); test: cells; settings: 48 h, read-out: IC50 for prochlorperazine
# Method: as §1, §2
# A549 = test: cells; settings: Homo sapiens, A549, 48 h, read-out: IC50 for prochlorperazine
# Method: as §1, §2
# H2170 = test: cells; settings: Homo sapiens, NCI-H2170, 48 h, read-out: IC50 for prochlorperazine
# Method: as §1, §2
# NSCLC cell lines = test: cells; settings: 48 h, read-out: IC50 values in all cancer cell lines
# Method: as §1, §2
# CL97 = test: cells; settings: Homo sapiens, CL97, 48 h, read-out: IC50 for prochlorperazine
# Method: as §1, §2
# HCC827 = test: cells; settings: Homo sapiens, HCC827, 48 h, read-out: IC50 for prochlorperazine
# Method: as §1, §2
# drug resistant cancer = test: Clinical observation study, prochlorperazine added as maintenance therapy; settings: after prochlorperazine treatment added to salvage therapy; patients
compound,measurement,setting,value
CN1CCN(CCCN2c3ccccc3Sc3ccc(Cl)cc32)CC1 [prochlorperazine],IC50,CL152,16.6 ± 2.4 µM
same,IC50,CL141,12.7 ± 1 µM
same,IC50,HT29,13.5 ± 0.05 µM
same,IC50,SK-Hep 1,> 20 µM
same,IC50,H226,21.2 ± 1 µM
same,IC50,H1299,27.6 ± 8.8 µM
same,IC50,H441,17.7 ± 1.3 µM
same,IC50,[1],21 µM
same,IC50,A549,21.5 ± 1.1 µM
same,IC50,H2170,24.7 ± 0.4 µM
same,IC50,NSCLC cell lines,~20 µM
same,IC50,CL97,13 ± 1.04 µM
same,IC50,HCC827,> 20 µM
same,Median OS (overall survival),drug resistant cancer,13.5 (7.4-21.4) months
